Patent US20020115167A1
No constants are given. Whether binding was seen depends on the method and setting. Binding seen in cells or lysates may run through a third protein. Some entries that bind do so weakly or less than the wild type. Where a sequence is shown, tags or fusion partners need not be part of it.

Protein sequences, listed by entry. Tags and fused reporters are not part of them. Lines headed by an entry give the natural chain unless they say otherwise; changes in a name come on top.
UniProt Q7KZI7: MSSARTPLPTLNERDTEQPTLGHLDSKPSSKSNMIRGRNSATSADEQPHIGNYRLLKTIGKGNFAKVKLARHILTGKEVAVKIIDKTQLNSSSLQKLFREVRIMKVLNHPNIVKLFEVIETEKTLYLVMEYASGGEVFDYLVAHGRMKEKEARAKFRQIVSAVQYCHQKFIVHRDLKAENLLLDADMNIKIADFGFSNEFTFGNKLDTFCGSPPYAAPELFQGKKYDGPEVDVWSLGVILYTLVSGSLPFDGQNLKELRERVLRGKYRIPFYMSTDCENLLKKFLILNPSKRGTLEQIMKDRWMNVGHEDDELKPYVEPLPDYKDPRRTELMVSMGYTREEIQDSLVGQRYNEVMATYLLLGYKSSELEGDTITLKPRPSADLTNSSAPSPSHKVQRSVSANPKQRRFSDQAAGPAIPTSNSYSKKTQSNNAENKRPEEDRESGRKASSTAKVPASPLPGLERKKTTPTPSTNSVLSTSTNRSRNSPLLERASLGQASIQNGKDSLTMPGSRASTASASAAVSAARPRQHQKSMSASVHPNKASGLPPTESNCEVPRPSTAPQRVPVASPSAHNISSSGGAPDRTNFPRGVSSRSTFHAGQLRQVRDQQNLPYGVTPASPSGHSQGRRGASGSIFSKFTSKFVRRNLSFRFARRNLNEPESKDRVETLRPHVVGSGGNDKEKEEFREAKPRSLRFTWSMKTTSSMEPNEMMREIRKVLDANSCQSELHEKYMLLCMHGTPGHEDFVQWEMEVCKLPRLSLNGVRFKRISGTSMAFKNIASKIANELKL
UniProt P27448: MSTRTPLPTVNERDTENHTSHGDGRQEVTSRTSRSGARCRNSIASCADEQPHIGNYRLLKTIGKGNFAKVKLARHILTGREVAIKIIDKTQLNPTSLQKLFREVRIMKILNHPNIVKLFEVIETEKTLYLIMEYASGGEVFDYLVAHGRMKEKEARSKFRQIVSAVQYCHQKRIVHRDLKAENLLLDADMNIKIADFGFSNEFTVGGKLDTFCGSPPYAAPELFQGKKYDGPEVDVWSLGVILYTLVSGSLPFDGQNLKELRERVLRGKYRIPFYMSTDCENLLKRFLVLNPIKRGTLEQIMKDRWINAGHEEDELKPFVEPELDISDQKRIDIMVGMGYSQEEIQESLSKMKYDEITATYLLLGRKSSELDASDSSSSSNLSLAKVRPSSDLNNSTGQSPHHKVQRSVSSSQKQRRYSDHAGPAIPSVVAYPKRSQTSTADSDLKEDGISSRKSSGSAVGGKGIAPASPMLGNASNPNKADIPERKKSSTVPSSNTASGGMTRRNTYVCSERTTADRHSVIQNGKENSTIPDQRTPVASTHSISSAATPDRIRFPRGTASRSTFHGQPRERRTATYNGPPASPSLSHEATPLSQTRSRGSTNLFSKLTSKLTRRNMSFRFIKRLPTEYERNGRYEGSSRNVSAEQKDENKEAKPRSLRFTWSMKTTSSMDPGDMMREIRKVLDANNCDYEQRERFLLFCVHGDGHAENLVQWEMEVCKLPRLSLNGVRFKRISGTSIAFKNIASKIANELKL
UniProt Q9P0L2: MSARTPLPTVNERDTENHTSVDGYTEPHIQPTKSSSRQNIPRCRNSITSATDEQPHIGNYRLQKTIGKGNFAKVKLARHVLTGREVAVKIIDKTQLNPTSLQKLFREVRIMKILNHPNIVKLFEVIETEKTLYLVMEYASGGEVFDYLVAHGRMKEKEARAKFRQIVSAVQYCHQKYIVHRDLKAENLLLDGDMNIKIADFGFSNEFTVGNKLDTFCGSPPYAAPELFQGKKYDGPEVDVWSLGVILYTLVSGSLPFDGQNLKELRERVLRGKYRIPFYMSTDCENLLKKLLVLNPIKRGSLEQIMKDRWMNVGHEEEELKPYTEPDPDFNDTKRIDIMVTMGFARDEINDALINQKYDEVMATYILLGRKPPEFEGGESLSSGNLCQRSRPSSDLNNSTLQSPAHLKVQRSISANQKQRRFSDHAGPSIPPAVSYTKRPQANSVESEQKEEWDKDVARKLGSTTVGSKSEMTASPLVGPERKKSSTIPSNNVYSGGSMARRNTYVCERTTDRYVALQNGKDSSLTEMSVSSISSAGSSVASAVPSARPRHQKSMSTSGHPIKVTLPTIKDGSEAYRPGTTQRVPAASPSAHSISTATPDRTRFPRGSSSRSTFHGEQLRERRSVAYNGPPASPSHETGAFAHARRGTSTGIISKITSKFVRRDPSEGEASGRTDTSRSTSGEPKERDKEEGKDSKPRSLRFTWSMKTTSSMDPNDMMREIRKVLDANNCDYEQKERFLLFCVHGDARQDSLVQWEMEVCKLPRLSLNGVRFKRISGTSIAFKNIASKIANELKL

Columns and labels:
[1] = molecular target: human PAR-1B (hPAR-1B, EMK) (human) (UniProt Q7KZI7); assay: GST pull-down from HT1080 cell lysates, in vitro kinase assay, after PAR-1B antisense
[2] = molecular target: human PAR-1A (hPAR-1A, p78) (human) (UniProt P27448); assay: GST pull-down from HT1080 cell lysates, in vitro kinase assay, after PAR-1A antisense
[3] = molecular target: human PAR-1C (hPAR-1C) (human) (UniProt Q9P0L2); assay: GST pull-down from HT1080 cell lysates, in vitro kinase assay, after PAR-1C antisense

Measured: binding

LMRRHKRRRRKQKVSRIERSSSFSSITDSTMSLNII (peptide, mouse, UniProt Q61062 213-248, looked up, not shown: a dimerising Fc or GST) [GST fusion protein containing the 36 amino acid residues PAR-1 binding fragment from Dvl3]
binds: all assays above
